Assay results taken from US20220125874A1.
Results are given in words; binding and its absence hold for the method and conditions named. Binding seen in cells or lysates may run through a third protein. Some binding calls cover weakened binding; strength is not graded here.

Amino acid sequences for entries named in this document (tags omitted).
UniProt P29351: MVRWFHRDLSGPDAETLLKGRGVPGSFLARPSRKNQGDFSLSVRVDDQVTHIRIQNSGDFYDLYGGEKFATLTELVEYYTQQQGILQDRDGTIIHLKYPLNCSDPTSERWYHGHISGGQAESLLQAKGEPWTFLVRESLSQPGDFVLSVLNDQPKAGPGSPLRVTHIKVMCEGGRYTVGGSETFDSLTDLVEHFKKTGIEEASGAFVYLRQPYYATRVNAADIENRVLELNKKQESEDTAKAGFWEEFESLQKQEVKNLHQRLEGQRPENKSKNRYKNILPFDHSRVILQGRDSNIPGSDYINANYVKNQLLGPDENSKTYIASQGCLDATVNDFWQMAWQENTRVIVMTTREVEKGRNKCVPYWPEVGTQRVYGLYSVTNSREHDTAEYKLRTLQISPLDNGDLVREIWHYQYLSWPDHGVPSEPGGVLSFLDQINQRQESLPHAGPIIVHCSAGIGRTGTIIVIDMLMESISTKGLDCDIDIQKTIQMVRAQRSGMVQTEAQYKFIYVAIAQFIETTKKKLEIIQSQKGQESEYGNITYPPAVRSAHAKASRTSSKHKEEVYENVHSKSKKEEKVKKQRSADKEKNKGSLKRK

Biological target: T1, Siglec G (mouse, in spleen cells of CD24-deficient mice) (mouse) (UniProt Q80ZE3)
T1 sequence (tyrosine phosphorylated after CD24Fc stimulation (sites not stated), looked up): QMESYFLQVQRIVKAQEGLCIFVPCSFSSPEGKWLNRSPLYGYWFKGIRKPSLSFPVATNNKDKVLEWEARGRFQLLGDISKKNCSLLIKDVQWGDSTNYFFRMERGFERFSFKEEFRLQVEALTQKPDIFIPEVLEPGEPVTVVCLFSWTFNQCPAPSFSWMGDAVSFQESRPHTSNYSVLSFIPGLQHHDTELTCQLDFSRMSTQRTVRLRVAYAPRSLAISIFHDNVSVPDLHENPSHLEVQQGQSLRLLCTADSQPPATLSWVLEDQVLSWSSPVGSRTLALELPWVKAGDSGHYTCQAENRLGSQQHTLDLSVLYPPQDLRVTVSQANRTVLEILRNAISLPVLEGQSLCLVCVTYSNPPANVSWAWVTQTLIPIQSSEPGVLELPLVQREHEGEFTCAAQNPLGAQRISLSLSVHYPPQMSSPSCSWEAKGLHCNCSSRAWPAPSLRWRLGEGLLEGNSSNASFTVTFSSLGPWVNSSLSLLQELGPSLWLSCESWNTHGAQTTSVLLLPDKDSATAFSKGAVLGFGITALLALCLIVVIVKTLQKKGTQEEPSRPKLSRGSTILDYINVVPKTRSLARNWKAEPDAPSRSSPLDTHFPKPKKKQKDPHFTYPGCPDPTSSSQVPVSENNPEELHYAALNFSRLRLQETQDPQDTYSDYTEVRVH
Test: co-immunoprecipitation with anti-Siglec G antisera from spleen cell lysate, Western blot

binding: binds
Substance: SHP-1 (from UniProt P29351 1-595) (enzyme)
